Measured values taken from patent US20180230233A1.
Results are given in words; binding and its absence hold for the method and conditions named. Some results given as binding are weak or reduced against the parent protein; the word gives no strength.

Protein sequences, listed by entry. Tags and fused reporters are not part of them. Lines headed by an entry give the natural chain unless they say otherwise; changes in a name come on top.
UniProt Q15661: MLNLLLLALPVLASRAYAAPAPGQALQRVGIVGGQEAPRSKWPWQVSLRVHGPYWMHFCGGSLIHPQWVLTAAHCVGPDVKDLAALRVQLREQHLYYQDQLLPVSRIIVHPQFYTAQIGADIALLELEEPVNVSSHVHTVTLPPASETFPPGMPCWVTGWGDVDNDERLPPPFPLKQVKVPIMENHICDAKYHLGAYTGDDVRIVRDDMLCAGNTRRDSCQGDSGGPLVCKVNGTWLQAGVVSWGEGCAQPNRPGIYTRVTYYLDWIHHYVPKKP

Molecular target: recombinant human tryptase beta 1 tetramer (wild type, active) (human) (UniProt Q15661)
Test: X-ray crystallography, 2.15 A; ternary complex isolated by SEC

B1: soybean trypsin inhibitor (STI) (protein, UniProt P01070 25-205, looked up)
chain: DFVLDNEGNPLENGGTYYILSDITAFGGIRAAPTGNERCPLTVVQSRNELDKGIGTIISSPYRIRFIAEGHPLSLKFDSFAVIMLCVGIPTEWSVVEDLPEGPAVKIGENKDAMDGWFRLERVSDDEFNNYKLVFCPQQAEDDKCGDIGISIDHDDGTRRLVVSKNKPLVVQFQKLDKESL
binding: binds
